Literature values as cited in patent US20200164005A1, “PHARMACEUTICAL COMPOSITIONS OF A BILE ACID DERIVATIVE AND MICROBIOME AND USES THEREOF” (Intercept Pharmaceuticals, Inc., priority 2017, published 2020).
At least one structure is not confirmed: it was looked up by name or label, or the drawing left a doubt.

Test system: gut microbes
Conditions: cited from earlier work

C[C@H](CCC(=O)O)[C@H]1CC[C@H]2[C@@H]3CC[C@@H]4C[C@H](O)CC[C@]4(C)[C@H]3C[C@H](O)[C@]12C [DCA, deoxycholic acid]
potency as an antimicrobial agent relative to cholic acid (CA): an order of magnitude greater
